Assay results reported in US20250109444A1, “DNA HYPOMETHYLATION AS A PREDICTIVE MARKER FOR CANCER THERAPY” (Fred Hutchison Cancer Center, priority 2023, published 2025).
At least one compound was matched to its structure with a doubt left.

Assay: Sensitization to AKT inhibitors by pharmacologically induced DNA hypomethylation (DNMT inhibitors)
Type: cell-based
Settings: pharmacologically induced DNA hypomethylation with DNMT inhibitor
Source text: FIGS. 4A, 4B. Modulation of global DNA methylation changes the sensitivity to AKT inhibitors. (4A) Cell viability curves for solvent (circle) and SAMe (square) treated LNCaP cells. The difference in cell viability in response to AKTi (ipatasertib) treatment is shown. (4B) Decitabine (DAC) and GSK344862 results in sensitization.

Nc1ncn([C@H]2C[C@H](O)[C@@H](CO)O2)c(=O)n1 [decitabine]
Change of sensitivity to AKT inhibitors (AKTi): increases sensitivity to AKT inhibitors
